Some results were stated once for a whole list of compounds, not compound by compound. Some compounds share one range, which may span the group rather than tell each member.
Tested on: ELAM (E-selectin)
Experiment: Cell-ELAM (E-selectin) assay
Assay type: cell-based
Details: endothelial cells stimulated with LPS and IL-1β for 6 hours; E-selectin antibody ELISA; read-out: EC50 for reducing the expression of ELAM
From the text: Another useful cell screening assay, exemplified herein in Example 1B, is the E-selectin (ELAM) production assay, which measures activity of test compounds in reducing expression of ELAM in activated endothelial cells. Briefly, endothelial cells are activated by adding known activators such as lipopolysaccharide, TNF-α, or IL-1β, alone or in some combination. Activated cells produce ELAM, which can be measured using, for example, an E-selectin monoclonal antibody-based ELISA assay. In studies carried out in support of the present invention, ELAM production was decreased. As described herein, chroman derivatives were able to reduce ELAM production in an assay such as the one described in Example 1B.
B. Cell-ELAM Assay. Endothelial-Leukocyte Adhesion Molecule (ELAM), also known as E-selectin, is expressed on the surface of endothelial cells. In this assay, lipopolysaccharide (LPS) and IL-1β are used to stimulate the expression of ELAM; test agents are tested for their abilities to reduce this expression, in accordance with studies showing that reduction of leukocyte adhesion to endothelial cell surface is associated with decreased cellular damage (e.g., Takada, M., Et al., Transplantation 64: 1520-25, 1997; Steinberg, J. B., et al., J. Heart Lung Trans. 13:306-313, 1994).
Endothelial cells may be selected from any of a number of sources and cultured according to methods known in the art; including, for example, coronary artery endothelial cells, human brain microvascular endothelial cells (HBMEC; Hess, D. C., et al., Neurosci. Lett. 213(1): 37-40,1996), or lung endothelial cells. Cells are conveniently cultured in 96-well plates. […] Wells are allowed to develop for 35 minutes, before measurement at 402 nm in a Fluoroskan® Reader with shake program for 10 seconds. Positive results are recorded as a decrease in ELAM concentration in tested wells, as compared to control wells.

EC50, 20 to 60 µM:
COC(=O)CCC1(C)CCc2c(Br)c(O)c(C)c(C)c2O1 (stereo not drawn) [3-(5-Bromo-6-hydroxy-2,7,8-trimethyl-chroman-2-yl)-propionic acid methyl ester], CC1(CCC(=O)O)CCc2ccc(O)c(O)c2O1 (stereo not drawn) [3-(7,8-Dihydroxy-2-methyl-chroman-2-yl)-propionic acid], Cc1c(C)c2c(c(C)c1O)CCC(C)(C(=O)NCC1C3CC4CC(C3)CC1C4)O2 (stereo not drawn) [6-Hydroxy-2,5,7,8-tetramethyl-chroman-2-carboxylic acid (adamantan-2-ylmethyl)-amide]

Source: patent US20040097433A1, “Chroman derivatives for the reduction of inflammation symptoms” (priority 2002, published 2004)
